Measurements from PubChem BioAssay AID493014 (National Center for Advancing Translational Sciences (NCATS), 2011).
Some of the results follow. Further columns of the screen follow, without active or inactive calls. The list favours compounds with an active or inconclusive main result. Words in brackets tell the shape of the fitted curve; partial curves, single points and poor fits give uncertain potencies.

Assay: qHTS Assay to Find Inhibitors of Chronic Active B-Cell Receptor Signaling
Conditions: ABC-DLBCL IkBa-CBG/CBR reporter, luminescence ratio (green luciferase fused to IkBa over red control in TMD8 lymphoma cells), 4 h
How it was run: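 Cell line TMD8 (human ABC DLBCL), stably expressing tet-inducible CBG68-IkBa fusion and CBR; IMDM/0.5% FBS; cpd up to 46 uM; dox induction, 4 h, 37C/5% CO2; dual luminescence; green/red ratio; MG132 control.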

[1] = measured here: CBR red luminescence, cell number

O=C(Nc1cccc(Cl)c1)O/N=C\c1ccncc1
AC50 [1]: 17.8 µM [rising, partial curve, poor fit]

Fc1ccc(CNc2nc(-c3cccnc3)nc3ccccc23)cc1
AC50 [1]: 0.631 µM [rising, full curve, poor fit]

O=C(NCCc1ccccc1)C1CCCN(C(=O)NC2CCCCC2)C1 (centres undefined)
AC50 [1]: 6.31 µM [rising, single point]

O=C(Cc1ccccc1)N/N=C/c1ccc(Cl)cc1Cl
AC50 [1]: 2.24 µM [rising, full curve, poor fit]

COc1ccc(/C=C/c2cc(-c3ccc(C)cc3)o[n+]2C)cc1
AC50 [1]: 7.94 µM [falling, partial curve, poor fit]

Cc1nnc(SCc2ccc3c(c2)OCO3)s1
AC50 [1]: 2.91 µM [rising, full curve, poor fit]

CCCOCCOC(=O)c1[nH]c2c(c1C)C(=O)CC(c1cc(OC)ccc1OC)C2 (centres undefined)
AC50 [1]: 9.2 µM [rising, partial curve] | AC50 (measured here: IkBa-CBG green luminescence): 2.91 µM [falling, full curve]

COc1ccc2nc(-c3ccc(Cl)cc3)cc(C(=O)O)c2c1
AC50 [1]: 12.6 µM [falling, partial curve, poor fit]

COc1ccc(OC)c(C2=NOC(C(=O)NCC3CCCO3)C2)c1 (centres undefined)
AC50 [1]: 5.62 µM [rising, single point]

CC(C)C(=O)COc1c2occc2cc2ccc(=O)oc12
AC50 [1]: 29.1 µM [rising, single point]

N#Cc1c(N)nc(N)nc1Nc1ccc(Br)cc1
AC50 [1]: 0.501 µM [rising, partial curve, poor fit]

C/C(=N/NC(=O)CNC(=O)COc1ccccc1)c1ccc(Cl)cc1
AC50 [1]: 15.8 µM [rising, partial curve, poor fit]

O=C(O)c1cc(N=Cc2c(O)c3ccccc3oc2=O)ccc1O
AC50 [1]: 5.62 µM [falling, full curve]

O=C(NNC(=O)C1C2C=CC(C2)C1C(=O)O)c1ccccc1 (centres undefined)
AC50 [1]: 4.47 µM [falling, partial curve, poor fit]

COc1ccc(C(=O)Nc2cc(Cl)ccc2N2CCOCC2)cc1S(=O)(=O)N1CCOCC1
AC50 [1]: 2.59 µM [falling, full curve, poor fit]

CCC(=O)Nc1ccc(C(=O)COC(=O)Cc2ccsc2)cc1
AC50 [1]: 0.366 µM [rising, full curve, poor fit]

O=C(Nc1ccc(Nc2ccccc2)cc1)c1cccc(F)c1
AC50 [1]: 35.5 µM [falling, partial curve, poor fit]

CCN(CC)c1ccc(NC(=O)COC(=O)c2ccc3ccccc3n2)cc1
AC50 [1]: 0.00461 µM [rising, full curve, poor fit]
